Data source: PubChem BioAssay AID1259254 (NCATS, 2017)

Purpose: 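Gene knock-downs that lead to re-replication, shown by excess G2 DNA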 (primary screen)
Cells: human HCT116 colorectal cancer cells
Knock-down reagent: single siRNA against human genes
Timing: 3 days
Read-out: 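Imaged Hoechst DNA stain sorts each cell into a cycle phase by DNA amount; per plate, G2 fraction set to 0% for non-targeting and 100% for GMNN siRNA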
Reading the numbers: G2 robust z-score and G2 cells, % of GMNN control: higher = more G2 cells, more excess DNA replication; raw share of cells in G2: higher = larger share of cells with G2 DNA content
Rule for the call: 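Active siRNAs have a G2 robust z of 5 or more median absolute deviations over the median, which in these data means about 38% or higher of GMNN control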
The deposit covers about 59,000 reagents; this is a part drawn at random. About 1,550 of all reagents (2.6%) were called active. 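G2 share is only a proxy for re-replication; each gene was hit by three separate siRNAs, and active genes were retested.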 Raw values are not corrected between plates. The record does not give: the amount of reagent.

gene | PubChem SID | G2 robust z-score | G2 cells, % of GMNN control | raw share of cells in G2 (%) | outcome
EVL | SID160733506 | -0.847 | -2.99 | 2.2 | inactive
EVL | SID160740852 | 0.00211 | 2.98 | 4.67 | inactive
EVL | SID160740853 | -0.457 | -0.248 | 4.17 | inactive
ARL14EP | SID160755818 | 0.353 | 5.45 | 6.28 | inactive
ARL14EP | SID160755819 | -0.713 | -2.05 | 2.72 | inactive
ARL14EP | SID160755820 | -0.56 | -0.972 | 1.53 | inactive
ZBTB20 | SID160737681 | -0.224 | 1.39 | 4.45 | inactive
ZBTB20 | SID160737682 | -0.437 | -0.107 | 6.12 | inactive
ZBTB20 | SID160737684 | -0.0939 | 2.31 | 4.95 | inactive
CACNA1C | SID160735041 | 3.24 | 25.8 | 14.7 | inactive
CACNA1C | SID160735128 | 0.499 | 6.48 | 6.97 | inactive
CACNA1C | SID160735219 | 0.796 | 8.57 | 7.72 | inactive
SREK1 | SID160732511 | -0.86 | -3.09 | 1.99 | inactive
SREK1 | SID160757947 | -0.441 | -0.132 | 3.78 | inactive
SREK1 | SID160757948 | -0.629 | -1.46 | 2.46 | inactive
PHF8 | SID160735528 | -0.823 | -2.82 | 3.88 | inactive
PHF8 | SID160735529 | -0.412 | 0.0692 | 4.16 | inactive
PHF8 | SID160735530 | 0.773 | 8.4 | 6.32 | inactive
LGALS14 | SID160745219 | -0.641 | -1.54 | 3.74 | inactive
LGALS14 | SID160745221 | -0.272 | 1.05 | 4.96 | inactive
LGALS14 | SID160745222 | -1 | -4.09 | 1.73 | inactive
TRMT11 | SID160747085 | 1.81 | 15.7 | 12.1 | inactive
TRMT11 | SID160747086 | 0.383 | 5.66 | 6.35 | inactive
TRMT11 | SID160747087 | 1.58 | 14.1 | 9.35 | inactive
DMRT2 | SID160728971 | 1.2 | 11.4 | 10.7 | inactive
DMRT2 | SID160728972 | 0.245 | 4.69 | 5.36 | inactive
DMRT2 | SID160728973 | -1.25 | -5.83 | 4.18 | inactive
DLGAP5 | SID160723088 | -0.488 | -0.466 | 5.12 | inactive
DLGAP5 | SID160723089 | -0.122 | 2.11 | 4.82 | inactive
DLGAP5 | SID160723090 | 2.03 | 17.3 | 9.7 | inactive
FBXW11 | SID160735930 | 2.88 | 23.2 | 15.7 | inactive
FBXW11 | SID160735931 | -0.319 | 0.725 | 4.4 | inactive
FBXW11 | SID160735932 | 0.561 | 6.91 | 6.23 | inactive
FNTA | SID160721185 | 1.3 | 12.1 | 9.86 | inactive
FNTA | SID160721400 | -0.892 | -3.31 | 4.03 | inactive
FNTA | SID160730844 | 1.24 | 11.7 | 7.81 | inactive
PROKR1 | SID160729428 | -1.22 | -5.64 | 3.82 | inactive
PROKR1 | SID160729429 | 0.141 | 3.96 | 5.9 | inactive
PROKR1 | SID160729430 | -0.524 | -0.719 | 3.05 | inactive

Entries listed so far whose target name starts with F or f (6):
gene | PubChem SID | G2 robust z-score | G2 cells, % of GMNN control | raw share of cells in G2 (%) | outcome
FBXW11 | SID160735930 | 2.88 | 23.2 | 15.7 | inactive
FBXW11 | SID160735931 | -0.319 | 0.725 | 4.4 | inactive
FBXW11 | SID160735932 | 0.561 | 6.91 | 6.23 | inactive
FNTA | SID160721185 | 1.3 | 12.1 | 9.86 | inactive
FNTA | SID160721400 | -0.892 | -3.31 | 4.03 | inactive
FNTA | SID160730844 | 1.24 | 11.7 | 7.81 | inactive

More records follow.
gene | PubChem SID | G2 robust z-score | G2 cells, % of GMNN control | raw share of cells in G2 (%) | outcome
GNA13 | SID160729018 | 0.371 | 5.58 | 8.12 | inactive
GNA13 | SID160729019 | 1.26 | 11.8 | 7.67 | inactive
GNA13 | SID160729020 | 0.189 | 4.3 | 8.17 | inactive
DENND11 | SID160745793 | 0.592 | 7.13 | 7.16 | inactive
DENND11 | SID160745794 | 0.00146 | 2.98 | 5.88 | inactive
DENND11 | SID160745795 | -0.147 | 1.93 | 3.64 | inactive
PTH2R | SID160715331 | -0.983 | -3.95 | 4.43 | inactive
PTH2R | SID160715332 | 0.0566 | 3.37 | 5.69 | inactive
PTH2R | SID160715333 | -0.36 | 0.436 | 3.4 | inactive
ZSCAN18 | SID160748353 | 1.94 | 16.6 | 8.66 | inactive
ZSCAN18 | SID160748355 | -1.24 | -5.78 | 3.3 | inactive
ZSCAN18 | SID160748356 | -0.583 | -1.14 | 3.28 | inactive
NFATC2IP | SID160752895 | 2.27 | 18.9 | 12.1 | inactive
NFATC2IP | SID160752896 | 1.68 | 14.8 | 7.64 | inactive
NFATC2IP | SID160752897 | 0.0654 | 3.43 | 4.01 | inactive
KCNK6 | SID160722181 | 3.79 | 29.7 | 16.1 | inactive
KCNK6 | SID160722182 | 0.58 | 7.05 | 7.16 | inactive
KCNK6 | SID160722183 | 0.798 | 8.58 | 7.72 | inactive
BSX | SID160766464 | -0.396 | 0.184 | 3.84 | inactive
BSX | SID160766465 | 0.0194 | 3.1 | 4.76 | inactive
BSX | SID160766466 | 4.98 | 38 | 20.9 | inactive
ZNF44 | SID160741251 | 3.24 | 25.7 | 11.9 | inactive
ZNF44 | SID160741252 | -0.292 | 0.914 | 6.32 | inactive
ZNF44 | SID160741253 | 0.00583 | 3.01 | 4.58 | inactive
LMX1B | SID160776681 | -0.586 | -1.15 | 4.91 | inactive
LMX1B | SID160776682 | 0.0628 | 3.41 | 4.32 | inactive
LMX1B | SID160776683 | 0.119 | 3.8 | 6.98 | inactive
RBM6 | SID160726577 | -1.07 | -4.59 | 3.7 | inactive
RBM6 | SID160726583 | -1.13 | -4.99 | 2.23 | inactive
RBM6 | SID160726594 | 2.97 | 23.9 | 15.9 | inactive
RPRML | SID160765849 | -0.673 | -1.76 | 3.17 | inactive
RPRML | SID160765850 | 0.262 | 4.81 | 5.5 | inactive
RPRML | SID160765852 | 0.549 | 6.83 | 7.56 | inactive
GRIN3B | SID160755424 | -0.917 | -3.48 | 4.02 | inactive
GRIN3B | SID160755425 | 2.82 | 22.8 | 12.5 | inactive
GRIN3B | SID160755426 | 0.337 | 5.34 | 6.46 | inactive
NDUFA7 | SID160731274 | -0.727 | -2.15 | 4.53 | inactive
NDUFA7 | SID160777847 | -0.236 | 1.31 | 5.99 | inactive
NDUFA7 | SID160777848 | -0.837 | -2.92 | 2.23 | inactive
ERP29 | SID160729630 | 7.51 | 55.8 | 26.9 | active
ERP29 | SID160729631 | 2.13 | 18 | 11.6 | inactive
ERP29 | SID160729632 | 1.75 | 15.3 | 8.9 | inactive
ZNF485 | SID160761564 | -0.505 | -0.584 | 2.89 | inactive
ZNF485 | SID160761566 | -0.659 | -1.67 | 2.59 | inactive
ZNF485 | SID160761567 | -0.398 | 0.17 | 3.58 | inactive
PLA2G6 | SID160719957 | 0.97 | 9.79 | 8.21 | inactive
PLA2G6 | SID160719959 | -0.0792 | 2.41 | 6.11 | inactive
PLA2G6 | SID160719960 | 0.432 | 6.01 | 7.27 | inactive
